Measured values as given in patent US7718626B2, “ErbB3 binding protein compositions and methods of use” (University of Maryland, Baltimore, priority 2005, dated 2010).
For at least one compound, name, drawing or mass did not settle the structure.

Legend:
LNCaP cells = assay: Growth in steroid-reduced medium with DHT and/or bicalutamide; format: cell-based, human; settings: 10 μM bicalutamide
Protocol: Cell Growth Assays: To measure growth in complete media, cells (2×10^4) were seeded in triplicate in individual wells of 12-well tissue culture plates in RPMI-1640 with 10% FBS and cultured for the indicated number of days. Cells were trypsinized, stained with Trypan Blue (0.4%), and counted in a hemacytometer. […] Colonies were counted after 10 days of incubation. For studies assessing the effect of dihydrotestosterone (DHT) on cell growth, cells (2×10^4) were plated in 12-well plates in complete media. After a 24-hour attachment period, the medium was replaced with steroid-free medium [phenol red-free RPMI 1640 and 5% charcoal-stripped FBS (Sigma)] for 48 hours. The final concentration of testosterone in the steroid-reduced media was less than 5 pM. After 48 hours of steroid depletion, cells were re-fed with fresh steroid-reduced medium with or without the indicated concentrations of DHT and/or bicalutamide (10 μM), and total cell numbers were assessed 7 days later.

PSA promoter = assay: ChIP assay on PSA promoter in LNCaP ebp1 transfectants; format: cell-based, human; settings: 5 μM bicalutamide for one hour

Compound: CC(O)(CS(=O)(=O)c1ccc(F)cc1)C(=O)Nc1ccc(C#N)c(C(F)(F)F)c1 (stereo not shown) [bicalutamide]
- effect on DHT-stimulated growth (LNCaP cells; LNCaP vector controls): completely suppressed
- effect on DHT-stimulated growth (LNCaP cells; ebp1-transfected cells): completely suppressed
- recruitment of Ebp1 to the PSA promoter (PSA promoter): recruited to the PSA promoter
- recruitment of HDAC2 to the PSA promoter (PSA promoter): recruited to the PSA promoter
